# According to the supplement of paper PMC12067093, “Discovery and optimisation of a covalent ligand for TRIM25 and its application to targeted protein ubiquitination” (Chemical Science, 2025):
# Amino acid sequences for entries named in this document (tags omitted). A change or cut given only in a name is not applied to a line headed by its entry.
# UniProt P43034: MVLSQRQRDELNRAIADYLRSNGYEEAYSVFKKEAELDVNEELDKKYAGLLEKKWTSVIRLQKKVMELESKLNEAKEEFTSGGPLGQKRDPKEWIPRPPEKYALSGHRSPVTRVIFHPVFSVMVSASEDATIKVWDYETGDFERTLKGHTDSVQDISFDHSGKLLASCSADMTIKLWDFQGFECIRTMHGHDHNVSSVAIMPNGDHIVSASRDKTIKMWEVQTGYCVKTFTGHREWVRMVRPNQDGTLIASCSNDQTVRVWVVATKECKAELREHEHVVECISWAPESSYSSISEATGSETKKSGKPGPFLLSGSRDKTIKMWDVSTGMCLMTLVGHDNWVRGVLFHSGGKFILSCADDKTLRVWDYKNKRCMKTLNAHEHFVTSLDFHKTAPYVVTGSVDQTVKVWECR
# UniProt Q9NPF4: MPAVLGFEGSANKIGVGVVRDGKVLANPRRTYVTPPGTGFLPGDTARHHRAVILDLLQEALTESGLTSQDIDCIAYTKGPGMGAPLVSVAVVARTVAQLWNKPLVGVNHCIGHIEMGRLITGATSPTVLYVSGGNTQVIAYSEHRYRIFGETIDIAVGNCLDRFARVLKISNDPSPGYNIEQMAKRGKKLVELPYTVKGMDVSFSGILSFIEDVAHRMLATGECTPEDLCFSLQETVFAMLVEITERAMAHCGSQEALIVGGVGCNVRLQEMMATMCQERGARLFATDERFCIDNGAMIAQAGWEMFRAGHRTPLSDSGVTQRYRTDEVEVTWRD
# UniProt Q9ULE6: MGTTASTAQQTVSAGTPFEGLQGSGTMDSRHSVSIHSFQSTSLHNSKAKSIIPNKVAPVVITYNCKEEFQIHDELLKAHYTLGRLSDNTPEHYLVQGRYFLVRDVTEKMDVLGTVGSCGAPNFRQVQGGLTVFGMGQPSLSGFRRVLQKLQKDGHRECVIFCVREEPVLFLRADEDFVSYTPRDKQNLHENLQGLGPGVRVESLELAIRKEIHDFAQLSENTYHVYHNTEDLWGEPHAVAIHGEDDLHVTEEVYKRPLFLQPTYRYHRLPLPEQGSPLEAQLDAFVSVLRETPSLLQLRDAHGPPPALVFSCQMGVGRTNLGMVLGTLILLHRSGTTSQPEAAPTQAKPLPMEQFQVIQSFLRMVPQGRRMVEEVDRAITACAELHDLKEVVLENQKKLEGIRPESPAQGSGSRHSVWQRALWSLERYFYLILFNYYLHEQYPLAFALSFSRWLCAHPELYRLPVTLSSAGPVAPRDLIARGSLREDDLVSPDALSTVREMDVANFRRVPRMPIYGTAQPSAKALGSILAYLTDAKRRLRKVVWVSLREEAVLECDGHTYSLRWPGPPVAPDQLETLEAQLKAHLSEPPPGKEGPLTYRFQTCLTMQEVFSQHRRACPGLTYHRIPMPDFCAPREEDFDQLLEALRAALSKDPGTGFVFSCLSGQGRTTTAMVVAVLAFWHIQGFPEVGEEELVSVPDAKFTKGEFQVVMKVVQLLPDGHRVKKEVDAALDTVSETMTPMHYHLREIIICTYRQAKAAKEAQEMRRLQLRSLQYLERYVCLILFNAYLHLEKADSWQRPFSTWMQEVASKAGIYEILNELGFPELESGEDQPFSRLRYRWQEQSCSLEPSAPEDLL
# UniProt Q9H0X9: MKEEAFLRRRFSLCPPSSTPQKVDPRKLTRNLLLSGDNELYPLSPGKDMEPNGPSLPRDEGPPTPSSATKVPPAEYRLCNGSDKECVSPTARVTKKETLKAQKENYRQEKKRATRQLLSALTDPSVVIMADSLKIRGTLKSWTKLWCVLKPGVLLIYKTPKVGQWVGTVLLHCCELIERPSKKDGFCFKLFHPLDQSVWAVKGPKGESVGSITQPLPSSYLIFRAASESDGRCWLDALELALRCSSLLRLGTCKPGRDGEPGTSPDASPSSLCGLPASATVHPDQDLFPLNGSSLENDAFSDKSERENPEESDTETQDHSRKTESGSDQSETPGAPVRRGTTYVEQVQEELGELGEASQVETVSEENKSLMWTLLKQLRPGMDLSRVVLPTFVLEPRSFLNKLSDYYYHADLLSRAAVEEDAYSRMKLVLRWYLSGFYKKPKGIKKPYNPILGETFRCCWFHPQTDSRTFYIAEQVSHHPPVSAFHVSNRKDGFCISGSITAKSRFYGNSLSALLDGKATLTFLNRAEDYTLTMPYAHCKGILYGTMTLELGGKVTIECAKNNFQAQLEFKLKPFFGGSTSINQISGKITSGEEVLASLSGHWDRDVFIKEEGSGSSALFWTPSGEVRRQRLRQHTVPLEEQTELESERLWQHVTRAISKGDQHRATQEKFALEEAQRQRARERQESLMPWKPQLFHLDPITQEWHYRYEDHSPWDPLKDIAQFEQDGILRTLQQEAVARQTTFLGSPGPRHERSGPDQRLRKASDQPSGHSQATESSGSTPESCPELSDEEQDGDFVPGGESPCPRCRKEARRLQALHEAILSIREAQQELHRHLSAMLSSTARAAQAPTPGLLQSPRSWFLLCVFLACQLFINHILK
# UniProt O43929: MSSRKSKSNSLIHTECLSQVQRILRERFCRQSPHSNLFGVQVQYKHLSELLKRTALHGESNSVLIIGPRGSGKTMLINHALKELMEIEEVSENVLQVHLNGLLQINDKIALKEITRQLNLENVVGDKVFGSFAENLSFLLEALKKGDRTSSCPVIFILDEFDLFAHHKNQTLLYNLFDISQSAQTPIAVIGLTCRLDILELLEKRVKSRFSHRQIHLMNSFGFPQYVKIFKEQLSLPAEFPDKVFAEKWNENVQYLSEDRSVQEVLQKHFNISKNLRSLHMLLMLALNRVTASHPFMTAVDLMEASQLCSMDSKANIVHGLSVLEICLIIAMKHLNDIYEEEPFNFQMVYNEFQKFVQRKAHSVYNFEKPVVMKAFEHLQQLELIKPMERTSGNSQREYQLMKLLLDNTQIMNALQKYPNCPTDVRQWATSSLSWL
# UniProt Q96FW1, whole entry, looked up: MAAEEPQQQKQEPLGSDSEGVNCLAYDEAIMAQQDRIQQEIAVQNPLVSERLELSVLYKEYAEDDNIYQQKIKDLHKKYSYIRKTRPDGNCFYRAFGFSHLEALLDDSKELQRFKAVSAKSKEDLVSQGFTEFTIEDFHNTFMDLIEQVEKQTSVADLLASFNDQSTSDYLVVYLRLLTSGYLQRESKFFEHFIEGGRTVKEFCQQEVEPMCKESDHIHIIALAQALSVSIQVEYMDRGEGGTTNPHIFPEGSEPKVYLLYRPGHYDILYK
# UniProt O95453: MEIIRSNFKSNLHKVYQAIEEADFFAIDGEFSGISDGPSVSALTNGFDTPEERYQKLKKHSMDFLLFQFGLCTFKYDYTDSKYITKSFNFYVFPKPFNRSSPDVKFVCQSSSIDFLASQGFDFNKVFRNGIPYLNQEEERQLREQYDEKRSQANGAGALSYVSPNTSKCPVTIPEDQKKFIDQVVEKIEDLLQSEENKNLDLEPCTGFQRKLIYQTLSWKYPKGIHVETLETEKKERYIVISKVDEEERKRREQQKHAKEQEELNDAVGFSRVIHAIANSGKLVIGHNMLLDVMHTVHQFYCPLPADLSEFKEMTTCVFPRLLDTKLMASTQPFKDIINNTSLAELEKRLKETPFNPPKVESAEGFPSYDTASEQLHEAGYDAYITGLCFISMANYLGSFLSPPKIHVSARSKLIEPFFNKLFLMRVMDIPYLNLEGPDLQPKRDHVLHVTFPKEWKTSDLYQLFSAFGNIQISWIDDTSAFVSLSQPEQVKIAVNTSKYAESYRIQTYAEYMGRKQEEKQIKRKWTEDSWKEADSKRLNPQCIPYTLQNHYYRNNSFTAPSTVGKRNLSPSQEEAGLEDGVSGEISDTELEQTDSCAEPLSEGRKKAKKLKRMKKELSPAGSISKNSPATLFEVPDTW
# UniProt Q504Q3: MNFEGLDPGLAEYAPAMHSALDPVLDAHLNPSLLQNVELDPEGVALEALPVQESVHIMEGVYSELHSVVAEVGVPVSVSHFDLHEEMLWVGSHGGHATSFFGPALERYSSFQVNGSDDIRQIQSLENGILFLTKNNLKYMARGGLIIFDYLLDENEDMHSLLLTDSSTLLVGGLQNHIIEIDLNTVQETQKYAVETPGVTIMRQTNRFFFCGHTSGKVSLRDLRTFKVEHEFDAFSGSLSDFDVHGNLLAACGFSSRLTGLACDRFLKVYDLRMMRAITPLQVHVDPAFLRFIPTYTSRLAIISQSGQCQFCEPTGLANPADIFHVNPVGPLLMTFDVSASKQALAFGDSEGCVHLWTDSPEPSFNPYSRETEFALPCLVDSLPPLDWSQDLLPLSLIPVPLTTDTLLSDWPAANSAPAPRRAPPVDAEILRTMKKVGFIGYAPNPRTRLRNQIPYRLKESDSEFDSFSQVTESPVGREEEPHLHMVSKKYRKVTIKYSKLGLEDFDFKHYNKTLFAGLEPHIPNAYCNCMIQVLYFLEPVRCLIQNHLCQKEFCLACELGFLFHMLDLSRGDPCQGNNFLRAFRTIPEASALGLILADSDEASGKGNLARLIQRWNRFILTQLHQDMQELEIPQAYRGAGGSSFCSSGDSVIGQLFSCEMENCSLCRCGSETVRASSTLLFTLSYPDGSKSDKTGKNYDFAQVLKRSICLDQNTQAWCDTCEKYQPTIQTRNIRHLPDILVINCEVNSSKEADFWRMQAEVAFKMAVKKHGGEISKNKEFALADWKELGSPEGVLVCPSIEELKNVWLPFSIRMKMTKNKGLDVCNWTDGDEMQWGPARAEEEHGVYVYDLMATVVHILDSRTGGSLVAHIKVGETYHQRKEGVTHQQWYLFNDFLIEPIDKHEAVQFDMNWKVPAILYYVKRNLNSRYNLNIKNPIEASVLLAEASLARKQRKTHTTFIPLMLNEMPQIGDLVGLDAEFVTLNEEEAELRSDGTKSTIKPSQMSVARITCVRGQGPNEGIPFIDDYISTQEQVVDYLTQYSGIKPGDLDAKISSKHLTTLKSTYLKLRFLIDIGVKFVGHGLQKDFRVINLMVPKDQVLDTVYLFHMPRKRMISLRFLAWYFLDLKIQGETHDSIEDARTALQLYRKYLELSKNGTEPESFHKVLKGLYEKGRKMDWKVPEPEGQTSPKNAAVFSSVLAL
# UniProt Q8N573: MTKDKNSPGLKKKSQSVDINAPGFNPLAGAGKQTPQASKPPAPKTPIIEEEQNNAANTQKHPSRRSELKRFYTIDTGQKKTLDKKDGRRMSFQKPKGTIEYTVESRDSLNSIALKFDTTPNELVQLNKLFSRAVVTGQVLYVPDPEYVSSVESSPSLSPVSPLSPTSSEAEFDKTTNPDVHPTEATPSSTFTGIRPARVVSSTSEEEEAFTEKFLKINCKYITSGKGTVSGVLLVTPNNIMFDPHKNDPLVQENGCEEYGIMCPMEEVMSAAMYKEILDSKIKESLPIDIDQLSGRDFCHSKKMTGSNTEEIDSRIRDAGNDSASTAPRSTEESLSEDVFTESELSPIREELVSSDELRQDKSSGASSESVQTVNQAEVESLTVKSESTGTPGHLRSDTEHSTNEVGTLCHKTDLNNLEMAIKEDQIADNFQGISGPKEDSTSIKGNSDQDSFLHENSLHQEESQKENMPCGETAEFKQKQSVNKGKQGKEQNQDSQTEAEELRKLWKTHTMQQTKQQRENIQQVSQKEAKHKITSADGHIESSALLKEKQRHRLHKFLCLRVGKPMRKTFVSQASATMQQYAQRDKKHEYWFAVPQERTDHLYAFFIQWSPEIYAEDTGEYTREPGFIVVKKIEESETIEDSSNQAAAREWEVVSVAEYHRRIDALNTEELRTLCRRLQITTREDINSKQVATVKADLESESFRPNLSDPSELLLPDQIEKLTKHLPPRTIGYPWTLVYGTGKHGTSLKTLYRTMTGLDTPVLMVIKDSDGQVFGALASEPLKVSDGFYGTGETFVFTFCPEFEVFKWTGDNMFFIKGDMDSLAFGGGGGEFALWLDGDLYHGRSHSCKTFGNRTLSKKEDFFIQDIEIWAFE
# UniProt Q9NXG6: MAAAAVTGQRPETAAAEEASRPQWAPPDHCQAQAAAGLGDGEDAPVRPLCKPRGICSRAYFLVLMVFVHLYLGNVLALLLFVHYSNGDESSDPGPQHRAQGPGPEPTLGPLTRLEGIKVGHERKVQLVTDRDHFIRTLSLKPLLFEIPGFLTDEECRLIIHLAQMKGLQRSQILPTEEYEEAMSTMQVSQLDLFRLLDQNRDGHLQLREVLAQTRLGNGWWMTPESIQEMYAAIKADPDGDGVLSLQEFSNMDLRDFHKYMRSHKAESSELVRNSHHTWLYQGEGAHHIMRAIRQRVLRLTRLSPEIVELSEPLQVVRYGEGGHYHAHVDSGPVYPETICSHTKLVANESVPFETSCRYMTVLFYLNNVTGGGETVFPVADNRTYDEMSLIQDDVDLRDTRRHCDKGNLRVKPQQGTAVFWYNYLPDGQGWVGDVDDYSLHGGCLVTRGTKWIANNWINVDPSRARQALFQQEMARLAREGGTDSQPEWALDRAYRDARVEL
# UniProt Q9NRP0: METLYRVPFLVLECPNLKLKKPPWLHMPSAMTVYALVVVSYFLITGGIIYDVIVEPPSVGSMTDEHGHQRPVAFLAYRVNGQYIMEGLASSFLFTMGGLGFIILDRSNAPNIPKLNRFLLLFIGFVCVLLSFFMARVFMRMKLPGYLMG
# The other results are listed elsewhere or left out.
# Compound: CC1Cc2ccccc2N1C(=O)C1CCCN(C1)C(=O)CCl (mixture of isomers) [TRIM25 ligand 11 (diastereomer mixture)]
# Assay: probe-labelled cysteine peptide fold change vs DMSO (competition) (log2 fold change); higher = less target engagement (more negative = stronger competition)
# Conditions: 10 µM; THP-1; incubation time: 4 h
# 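Note: competitive chemoproteomic profiling in live THP-1 cells with an iodoacetamide desthiobiotin (IA-DTB) probe, comparing probe-labelled peptide intensities in compound-treated cells against DMSO-treated controls.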
row,Target,probe-labelled cysteine peptide fold change
1,PAFAH1B1_P43034_168_LLASCSADMTIK (UniProt P43034),0.0746
2,OSGEP_Q9NPF4_160_IFGETIDIAVGNCLDR (UniProt Q9NPF4),0.0104
3,PALD1_Q9ULE6_382_AITACAELHDLK (UniProt Q9ULE6),-0.0113
4,PAICS_P22234_91_CGETAFIAPQCEMIPIEWVCR (UniProt P22234),0.291
5,OSBPL5_Q9H0X9_459_CCWFHPQTDSR (UniProt Q9H0X9),-0.0592
6,PA2G4_Q9UQ80_87_KGIAFPTSISVNNCVCHFSPLK (UniProt Q9UQ80),0.00883
7,ORC4_O43929_152_TSSCPVIFILDEFDLFAHHK (UniProt O43929),0.256
8,PAFAH1B1_P43034_184_LWDFQGFECIR (UniProt P43034),0.279
9,OSBPL1A_Q9BXW6_710+711_GTITLELLEHNEAYTWTNPTCCVHNIIVGK (UniProt Q9BXW6),0.0773
10,OPLAH_O14841_466_VANEAMCRPIR (UniProt O14841),0.0549
11,OTUB1_Q96FW1_23_QEPLGSDSEGVNCLAYDEAIMAQQDR (UniProt Q96FW1),-0.0765
12,PAF1_Q8N7H5_218_MWINPCAQVIFDSDPAPK (UniProt Q8N7H5),-0.103
13,PAIP1_Q9H074_318_ELLNALFSNPMDDNLICAVK (UniProt Q9H074),-0.0771
14,PARN_O95453_543_LNPQCIPYTLQNHYYR (UniProt O95453),0.0426
15,PAN2_Q504Q3_550_CLIQNHLCQK (UniProt Q504Q3),0.198
16,OTUB1_Q96FW1_91_TRPDGNCFYR (UniProt Q96FW1),-0.204
17,PARP12_Q9H0J9_276_DSSGSVSPNTLSQEEGDQICLYHIR (UniProt Q9H0J9),-0.129
18,PANK4_Q9NVE7_513_EHCLNEFNFPDPYSK (UniProt Q9NVE7),-0.444
19,OXR1_Q8N573_471_ENMPCGETAEFK (UniProt Q8N573),-0.114

row,Target,probe-labelled cysteine peptide fold change
1,PADI2_Q9Y2J8_629_GLLEPLGLECTFIDDISAYHK (UniProt Q9Y2J8),0.0551
2,PABPC1_P11940_128_ALYDTFSAFGNILSCK (UniProt P11940),-0.0161
3,OGT_O15294_44_HCMQLWR (UniProt O15294),0.0666
4,OSBPL3_Q9H4L5_114_CIDLDTEEHIYHLK (UniProt Q9H4L5),-0.0859
5,P4HTM_Q9NXG6_156_PLLFEIPGFLTDEECR (UniProt Q9NXG6),0.353
6,P4HB_P07237_400_NVFVEFYAPWCGHCK (UniProt P07237),-0.0822
7,PAPOLA_P51003_118_GADIDALCVAPR (UniProt P51003),0.0762
8,OSTC_Q9NRP0_14_VPFLVLECPNLK (UniProt Q9NRP0),-0.0633
9,OXR1_Q8N573-2_50_EPAQGDLGCGSPPHRPPAPSSPEGPDTGQK (UniProt Q8N573),-0.184
10,PARP1_P09874_256_VCSTNDLK (UniProt P09874),0.00261
11,PAPSS2_O95340_497_STIVAIFPSPMLYAGPTEVQWHCR (UniProt O95340),0.22
12,P2RX4_Q99571_227_TDPFCPIFR (UniProt Q99571),0.0247
13,PALD1_Q9ULE6_555_EEAVLECDGHTYSLR (UniProt Q9ULE6),0.165
14,PAN2_Q504Q3_798_ELGSPEGVLVCPSIEELK (UniProt Q504Q3),-0.158
15,P3H1_Q32P28_483_VVMDGVISDHECQELQR (UniProt Q32P28),0.223
16,PAK4_O96013_462_LSDFGFCAQVSK (UniProt O96013),0.0425
17,PARP14_Q460N5_1274_ECSQQAQQR (UniProt Q460N5),0.0962
18,OSBPL5_Q9H0X9_253_LGTCKPGR (UniProt Q9H0X9),-0.106

# Reformatted: entries from further up
row | Target | probe-labelled cysteine peptide fold change
11 | OTUB1_Q96FW1_23_QEPLGSDSEGVNCLAYDEAIMAQQDR (UniProt Q96FW1) | -0.0765
12 | PAF1_Q8N7H5_218_MWINPCAQVIFDSDPAPK (UniProt Q8N7H5) | -0.103
